± gives the standard deviation of the averaged measurements. The list shows a part of the results, in another mix than the full data.
Compound: Nc1ncnc2c1ncn2[C@@H]1O[C@H](COP(=O)(O)OP(=O)(O)OP(=O)(O)O)[C@@H](O)[C@H]1O [adenosine triphosphate]
Experiment: NP40-soluble protein abundance relative to vehicle (solubility fold change) (ratio); higher = more soluble protein in presence of ATP
Outline: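 Crude Jurkat lysate, prepared by Dounce homogenisation, was exposed to eight concentrations from 0.1 to 10 mM for 10 min at room temperature and then 3 min at 37 °C. Solubilisation used 0.8% NP40 with benzonase for 60 min at 4 °C, followed by ultracentrifugation and TMT labelling of the supernatant for LC-MS/MS. After vsn normalisation of intensities, each value is the fold change against the detergent-processed vehicle within each replicate, across three independent experiments.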

Protein sequences, listed by entry. Tags and fused reporters are not part of them. Lines headed by an entry give the natural chain unless they say otherwise; changes in a name come on top.
UniProt O60232: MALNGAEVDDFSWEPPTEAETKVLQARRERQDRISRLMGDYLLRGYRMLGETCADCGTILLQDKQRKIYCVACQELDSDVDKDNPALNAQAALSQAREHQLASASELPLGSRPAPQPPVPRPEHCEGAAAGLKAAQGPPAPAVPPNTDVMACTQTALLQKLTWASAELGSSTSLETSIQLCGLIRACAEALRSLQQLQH
UniProt O00217, whole entry: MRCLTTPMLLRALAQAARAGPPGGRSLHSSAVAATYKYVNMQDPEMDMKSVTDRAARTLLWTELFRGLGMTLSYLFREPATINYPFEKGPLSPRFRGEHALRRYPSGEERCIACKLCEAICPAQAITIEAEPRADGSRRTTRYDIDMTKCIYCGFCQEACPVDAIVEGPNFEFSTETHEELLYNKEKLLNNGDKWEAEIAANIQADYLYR
UniProt O14686, whole entry: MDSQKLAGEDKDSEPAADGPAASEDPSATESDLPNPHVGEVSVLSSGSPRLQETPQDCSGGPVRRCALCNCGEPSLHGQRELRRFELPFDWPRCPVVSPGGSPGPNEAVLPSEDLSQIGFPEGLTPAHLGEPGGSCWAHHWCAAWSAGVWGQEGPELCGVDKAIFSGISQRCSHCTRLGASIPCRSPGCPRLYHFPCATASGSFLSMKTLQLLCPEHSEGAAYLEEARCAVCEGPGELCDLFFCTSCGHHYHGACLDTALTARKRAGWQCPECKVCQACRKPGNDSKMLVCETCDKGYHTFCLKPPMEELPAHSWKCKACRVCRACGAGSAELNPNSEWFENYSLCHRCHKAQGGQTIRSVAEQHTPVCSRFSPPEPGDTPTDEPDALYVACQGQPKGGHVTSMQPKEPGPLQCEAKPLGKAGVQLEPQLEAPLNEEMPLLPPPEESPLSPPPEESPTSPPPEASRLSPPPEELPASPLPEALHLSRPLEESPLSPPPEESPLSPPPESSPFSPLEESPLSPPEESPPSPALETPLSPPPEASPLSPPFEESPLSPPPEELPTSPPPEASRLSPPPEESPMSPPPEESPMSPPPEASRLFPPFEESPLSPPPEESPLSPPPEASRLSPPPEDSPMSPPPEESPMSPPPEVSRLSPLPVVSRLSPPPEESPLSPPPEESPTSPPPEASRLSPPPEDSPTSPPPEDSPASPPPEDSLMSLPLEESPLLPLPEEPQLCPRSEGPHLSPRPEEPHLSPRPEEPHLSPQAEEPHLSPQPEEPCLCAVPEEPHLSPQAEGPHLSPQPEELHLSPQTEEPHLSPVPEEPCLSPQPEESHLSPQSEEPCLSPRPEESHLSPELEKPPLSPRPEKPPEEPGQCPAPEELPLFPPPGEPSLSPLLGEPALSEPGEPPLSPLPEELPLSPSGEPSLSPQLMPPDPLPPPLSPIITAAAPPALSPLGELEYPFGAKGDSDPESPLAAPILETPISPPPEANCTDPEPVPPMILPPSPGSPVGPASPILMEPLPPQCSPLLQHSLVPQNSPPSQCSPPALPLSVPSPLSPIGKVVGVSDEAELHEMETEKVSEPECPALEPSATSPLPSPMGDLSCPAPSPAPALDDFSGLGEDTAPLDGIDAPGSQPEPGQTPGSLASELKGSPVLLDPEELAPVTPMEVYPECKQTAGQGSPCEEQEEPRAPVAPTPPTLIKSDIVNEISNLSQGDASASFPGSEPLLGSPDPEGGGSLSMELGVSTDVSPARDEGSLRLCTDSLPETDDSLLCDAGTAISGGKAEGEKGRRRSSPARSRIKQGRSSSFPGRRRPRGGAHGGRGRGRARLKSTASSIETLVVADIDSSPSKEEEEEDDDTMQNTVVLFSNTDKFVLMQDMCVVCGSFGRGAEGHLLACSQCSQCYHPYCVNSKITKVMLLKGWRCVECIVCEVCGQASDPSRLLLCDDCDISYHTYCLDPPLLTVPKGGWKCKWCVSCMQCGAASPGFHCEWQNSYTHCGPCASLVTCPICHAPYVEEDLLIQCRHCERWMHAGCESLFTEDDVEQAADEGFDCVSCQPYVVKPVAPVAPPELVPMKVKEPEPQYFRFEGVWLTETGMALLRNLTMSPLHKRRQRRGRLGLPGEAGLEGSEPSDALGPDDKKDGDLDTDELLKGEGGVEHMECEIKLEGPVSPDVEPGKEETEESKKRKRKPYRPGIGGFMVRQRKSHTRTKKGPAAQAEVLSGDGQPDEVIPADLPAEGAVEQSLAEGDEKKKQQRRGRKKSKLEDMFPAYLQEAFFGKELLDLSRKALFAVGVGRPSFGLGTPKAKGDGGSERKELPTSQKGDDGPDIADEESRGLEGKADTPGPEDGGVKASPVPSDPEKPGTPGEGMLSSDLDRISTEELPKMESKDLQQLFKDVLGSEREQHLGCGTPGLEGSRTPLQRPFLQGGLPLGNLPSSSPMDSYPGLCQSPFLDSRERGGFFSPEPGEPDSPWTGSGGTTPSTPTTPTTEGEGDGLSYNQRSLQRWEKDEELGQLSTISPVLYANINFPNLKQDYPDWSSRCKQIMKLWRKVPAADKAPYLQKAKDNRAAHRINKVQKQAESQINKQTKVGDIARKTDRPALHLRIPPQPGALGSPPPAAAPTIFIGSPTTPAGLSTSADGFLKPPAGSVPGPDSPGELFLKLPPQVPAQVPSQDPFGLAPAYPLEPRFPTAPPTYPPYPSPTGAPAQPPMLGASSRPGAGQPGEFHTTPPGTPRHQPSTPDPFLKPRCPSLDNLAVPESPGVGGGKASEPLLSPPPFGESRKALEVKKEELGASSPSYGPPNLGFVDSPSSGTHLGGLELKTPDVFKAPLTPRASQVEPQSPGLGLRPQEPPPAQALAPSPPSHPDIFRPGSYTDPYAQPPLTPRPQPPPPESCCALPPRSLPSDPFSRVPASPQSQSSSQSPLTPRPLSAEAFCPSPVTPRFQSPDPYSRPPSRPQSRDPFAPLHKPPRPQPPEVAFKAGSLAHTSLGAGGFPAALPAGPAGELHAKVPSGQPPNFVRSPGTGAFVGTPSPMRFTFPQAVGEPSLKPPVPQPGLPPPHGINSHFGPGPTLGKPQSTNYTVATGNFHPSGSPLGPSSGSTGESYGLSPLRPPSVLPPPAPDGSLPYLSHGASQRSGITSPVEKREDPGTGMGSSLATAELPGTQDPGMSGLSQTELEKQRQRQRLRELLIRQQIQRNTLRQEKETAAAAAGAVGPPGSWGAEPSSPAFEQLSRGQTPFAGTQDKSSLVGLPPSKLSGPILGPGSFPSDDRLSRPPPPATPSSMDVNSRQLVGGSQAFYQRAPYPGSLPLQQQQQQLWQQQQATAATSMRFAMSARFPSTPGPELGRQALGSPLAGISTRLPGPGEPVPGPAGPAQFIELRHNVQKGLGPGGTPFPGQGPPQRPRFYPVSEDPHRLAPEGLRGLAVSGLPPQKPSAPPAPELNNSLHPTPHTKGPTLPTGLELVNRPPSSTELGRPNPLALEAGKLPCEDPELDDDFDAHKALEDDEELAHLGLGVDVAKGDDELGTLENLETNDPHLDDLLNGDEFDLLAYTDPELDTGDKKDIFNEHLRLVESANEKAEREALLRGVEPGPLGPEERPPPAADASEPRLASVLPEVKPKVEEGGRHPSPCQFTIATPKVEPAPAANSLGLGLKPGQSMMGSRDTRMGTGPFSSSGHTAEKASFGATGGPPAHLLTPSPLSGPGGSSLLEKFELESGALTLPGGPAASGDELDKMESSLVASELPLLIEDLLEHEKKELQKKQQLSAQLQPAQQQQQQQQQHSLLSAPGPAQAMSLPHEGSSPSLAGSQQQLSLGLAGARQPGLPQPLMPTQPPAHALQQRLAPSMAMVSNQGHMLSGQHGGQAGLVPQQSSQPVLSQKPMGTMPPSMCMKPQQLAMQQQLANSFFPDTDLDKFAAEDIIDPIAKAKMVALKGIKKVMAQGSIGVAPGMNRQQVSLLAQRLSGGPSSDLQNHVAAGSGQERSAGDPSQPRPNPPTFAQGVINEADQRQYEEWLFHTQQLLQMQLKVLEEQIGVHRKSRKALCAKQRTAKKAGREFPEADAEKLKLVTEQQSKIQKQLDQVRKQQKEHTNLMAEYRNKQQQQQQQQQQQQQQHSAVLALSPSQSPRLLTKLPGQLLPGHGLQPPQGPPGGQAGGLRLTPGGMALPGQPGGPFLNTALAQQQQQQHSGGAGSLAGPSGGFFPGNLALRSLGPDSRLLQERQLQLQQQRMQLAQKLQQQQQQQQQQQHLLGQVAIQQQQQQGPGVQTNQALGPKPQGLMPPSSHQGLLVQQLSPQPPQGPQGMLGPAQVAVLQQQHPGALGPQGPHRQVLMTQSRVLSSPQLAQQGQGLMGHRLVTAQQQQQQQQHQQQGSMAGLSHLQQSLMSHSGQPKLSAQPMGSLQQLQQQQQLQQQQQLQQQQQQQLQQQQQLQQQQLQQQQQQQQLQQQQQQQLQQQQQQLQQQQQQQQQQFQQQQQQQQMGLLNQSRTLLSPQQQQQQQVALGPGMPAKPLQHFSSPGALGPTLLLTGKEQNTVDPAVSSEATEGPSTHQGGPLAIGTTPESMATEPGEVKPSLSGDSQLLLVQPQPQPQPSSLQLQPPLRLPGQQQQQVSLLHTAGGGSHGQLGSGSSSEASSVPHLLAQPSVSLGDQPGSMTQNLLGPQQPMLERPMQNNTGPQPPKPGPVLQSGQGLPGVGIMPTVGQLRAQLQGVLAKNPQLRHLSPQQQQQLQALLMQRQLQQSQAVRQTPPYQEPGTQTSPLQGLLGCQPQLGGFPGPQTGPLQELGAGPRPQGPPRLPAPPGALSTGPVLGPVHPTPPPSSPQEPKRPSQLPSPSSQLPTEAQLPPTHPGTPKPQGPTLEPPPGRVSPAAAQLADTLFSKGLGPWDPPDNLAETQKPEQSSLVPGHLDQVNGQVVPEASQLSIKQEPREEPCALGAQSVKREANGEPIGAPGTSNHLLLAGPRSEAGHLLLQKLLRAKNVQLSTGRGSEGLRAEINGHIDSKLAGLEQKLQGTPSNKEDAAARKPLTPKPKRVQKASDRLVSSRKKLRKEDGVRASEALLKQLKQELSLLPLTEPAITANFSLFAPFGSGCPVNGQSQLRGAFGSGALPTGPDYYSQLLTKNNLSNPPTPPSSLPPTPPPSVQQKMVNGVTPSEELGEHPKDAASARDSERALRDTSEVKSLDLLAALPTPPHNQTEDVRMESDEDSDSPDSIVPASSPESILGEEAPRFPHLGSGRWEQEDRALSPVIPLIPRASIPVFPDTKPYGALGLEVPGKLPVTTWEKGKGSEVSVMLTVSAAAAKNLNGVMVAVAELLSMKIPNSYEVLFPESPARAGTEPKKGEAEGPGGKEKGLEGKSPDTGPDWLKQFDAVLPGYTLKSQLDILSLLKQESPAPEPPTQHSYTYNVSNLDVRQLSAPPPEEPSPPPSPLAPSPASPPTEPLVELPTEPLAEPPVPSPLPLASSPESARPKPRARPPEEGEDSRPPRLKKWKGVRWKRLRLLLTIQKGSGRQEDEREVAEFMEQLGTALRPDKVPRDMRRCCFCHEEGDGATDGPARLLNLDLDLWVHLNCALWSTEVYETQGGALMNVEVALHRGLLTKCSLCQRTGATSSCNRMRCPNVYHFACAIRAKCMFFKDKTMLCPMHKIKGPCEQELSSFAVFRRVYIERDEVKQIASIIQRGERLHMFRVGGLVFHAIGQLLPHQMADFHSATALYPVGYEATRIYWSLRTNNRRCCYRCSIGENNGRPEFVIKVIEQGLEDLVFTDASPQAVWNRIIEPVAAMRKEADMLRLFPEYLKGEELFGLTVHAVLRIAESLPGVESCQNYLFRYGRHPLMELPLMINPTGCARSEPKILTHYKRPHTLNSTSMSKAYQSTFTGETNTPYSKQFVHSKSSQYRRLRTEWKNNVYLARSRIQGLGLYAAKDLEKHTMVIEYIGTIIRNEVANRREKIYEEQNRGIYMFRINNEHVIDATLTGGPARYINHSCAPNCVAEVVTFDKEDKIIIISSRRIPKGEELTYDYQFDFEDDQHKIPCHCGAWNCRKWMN
UniProt O14777: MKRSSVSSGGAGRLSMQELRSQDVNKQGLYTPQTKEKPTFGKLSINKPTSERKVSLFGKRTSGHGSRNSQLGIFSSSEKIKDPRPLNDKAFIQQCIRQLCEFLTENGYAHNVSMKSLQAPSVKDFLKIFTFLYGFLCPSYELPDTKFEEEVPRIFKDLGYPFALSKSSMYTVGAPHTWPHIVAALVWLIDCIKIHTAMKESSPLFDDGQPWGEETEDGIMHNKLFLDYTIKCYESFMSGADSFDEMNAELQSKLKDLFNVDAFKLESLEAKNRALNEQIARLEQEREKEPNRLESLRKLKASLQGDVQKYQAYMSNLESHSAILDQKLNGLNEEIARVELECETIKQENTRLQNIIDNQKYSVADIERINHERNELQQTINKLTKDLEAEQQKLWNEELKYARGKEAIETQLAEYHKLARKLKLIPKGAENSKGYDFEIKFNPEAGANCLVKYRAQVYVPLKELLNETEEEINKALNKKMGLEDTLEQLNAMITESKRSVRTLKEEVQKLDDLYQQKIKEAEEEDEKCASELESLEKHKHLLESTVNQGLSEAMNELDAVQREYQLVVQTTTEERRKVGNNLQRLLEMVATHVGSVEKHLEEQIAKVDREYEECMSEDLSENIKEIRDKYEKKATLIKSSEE

Target	NP40-soluble protein abundance (concentration: 1mM)	NP40-soluble protein abundance (concentration: 2mM)	NP40-soluble protein abundance (concentration: 4mM)	NP40-soluble protein abundance (concentration: 6mM)	NP40-soluble protein abundance (concentration: 8mM)	NP40-soluble protein abundance (concentration: 10mM)
VWA5A (UniProt O00534)	1.1 ± 0.13	1.05 ± 0.019	1.091 ± 0.0092	1.06 ± 0.059	1.02 ± 0.023	1.02 ± 0.096
FOXO3 (UniProt O43524)	0.904 ± 0.068	0.919 ± 0.018	0.961 ± 0.12	0.926 ± 0.031	0.88 ± 0.04	0.882 ± 0.028
STXBP3 (UniProt O00186)	1.02 ± 0.061	1.02 ± 0.077	0.997 ± 0.075	0.973 ± 0.1	1.02 ± 0.064	0.988 ± 0.077
UniProt O60353 and related entries	0.975 ± 0.092	0.85 ± 0.014	0.956 ± 0.089	0.996 ± 0.097	0.952 ± 0.074	0.95 ± 0.02
LSM1 (UniProt O15116)	1 ± 0.093	1 ± 0.073	1.01 ± 0.11	0.945 ± 0.022	0.985 ± 0.054	0.962 ± 0.098
UniProt O14733 and related entries	1.12 ± 0.049	1.15 ± 0.05	1.13 ± 0.037	1.07 ± 0.047	1.06 ± 0.06	1.1 ± 0.042
UniProt O14530 and related entries	1 ± 0.047	0.956 ± 0.12	0.922 ± 0.13	0.944 ± 0.14	0.93 ± 0.14	0.972 ± 0.098
POLR3A (UniProt O14802)	1.06 ± 0.035	1.01 ± 0.0059	1.04 ± 0.06	1 ± 0.04	1.08 ± 0.069	1.05 ± 0.032
UniProt O15265 and related entries	1.09 ± 0.15	1.06 ± 0.1	1.11 ± 0.087	1.14 ± 0.11	1.12 ± 0.1	1.3 ± 0.14
UniProt O00221 and related entries	0.995 ± 0.1	0.994 ± 0.026	0.973 ± 0.061	1.02 ± 0.12	0.924 ± 0.093	0.938 ± 0.045
UniProt O15015 and related entries	1.02 ± 0.045	1.044 ± 0.0076	1.03 ± 0.029	1.089 ± 0.0076	1.03 ± 0.047	1.05 ± 0.043
CHMP2A (UniProt O43633)	0.996 ± 0.055	1 ± 0.028	1.03 ± 0.016	1.02 ± 0.049	1.05 ± 0.068	0.936 ± 0.14
UniProt O00330 and related entries	1.23 ± 0.19	1.02 ± 0.14	0.981 ± 0.15	1.04 ± 0.4	1.01 ± 0.24	0.937 ± 0.19
UniProt O60232	0.939 ± 0.066	0.951 ± 0.079	0.957 ± 0.017	0.983 ± 0.14	0.931 ± 0.033	0.892 ± 0.067
DENR (UniProt O43583)	0.941 ± 0.057	0.92 ± 0.027	0.913 ± 0.018	0.886 ± 0.037	0.895 ± 0.037	0.848 ± 0.086
PFDN6 (UniProt O15212)	0.855 ± 0.079	0.828 ± 0.065	0.803 ± 0.084	0.881 ± 0.085	0.795 ± 0.056	0.801 ± 0.067
KIF1C (UniProt O43896)	1.07 ± 0.047	1.08 ± 0.086	1.1 ± 0.069	1.08 ± 0.023	1.083 ± 0.0017	1.09 ± 0.027
UniProt O60331 and related entries	1.04 ± 0.16	1.16 ± 0.14	1.05 ± 0.081	1.14 ± 0.2	0.981 ± 0.033	1.05 ± 0.1
UBFD1 (UniProt O14562)	0.963 ± 0.068	0.943 ± 0.08	0.931 ± 0.049	0.96 ± 0.049	0.926 ± 0.041	0.9 ± 0.018
UniProt O43903	0.936 ± 0.038	0.978 ± 0.044	0.964 ± 0.022	0.978 ± 0.026	0.947 ± 0.043	0.964 ± 0.054

Some of the entries above, reformatted:
Target,NP40-soluble protein abundance (concentration: 1mM),NP40-soluble protein abundance (concentration: 2mM),NP40-soluble protein abundance (concentration: 4mM),NP40-soluble protein abundance (concentration: 6mM),NP40-soluble protein abundance (concentration: 8mM),NP40-soluble protein abundance (concentration: 10mM)
UniProt O15015 and related entries,1.02 ± 0.045,1.044 ± 0.0076,1.03 ± 0.029,1.089 ± 0.0076,1.03 ± 0.047,1.05 ± 0.043
UniProt O43903,0.936 ± 0.038,0.978 ± 0.044,0.964 ± 0.022,0.978 ± 0.026,0.947 ± 0.043,0.964 ± 0.054

The list goes on.

Target	NP40-soluble protein abundance (concentration: 1mM)	NP40-soluble protein abundance (concentration: 2mM)	NP40-soluble protein abundance (concentration: 4mM)	NP40-soluble protein abundance (concentration: 6mM)	NP40-soluble protein abundance (concentration: 8mM)	NP40-soluble protein abundance (concentration: 10mM)
UniProt O00217 and related entries	0.979 ± 0.032	0.929 ± 0.063	0.932 ± 0.047	0.956 ± 0.059	0.947 ± 0.041	0.918 ± 0.036
UniProt O14686 and related entries	0.977 ± 0.03	0.966 ± 0.031	0.971 ± 0.034	1 ± 0.049	0.949 ± 0.028	0.975 ± 0.013
SMARCA5 (UniProt O60264)	1.17 ± 0.028	1.2 ± 0.024	1.2 ± 0.03	1.23 ± 0.016	1.27 ± 0.018	1.26 ± 0.032
M0R2Z9 and related entries (UniProt Q8IX01)	1.11 ± 0.038	1.09 ± 0.1	1.08 ± 0.099	1.13 ± 0.16	1.12 ± 0.13	1.15 ± 0.13
UniProt O14880 and related entries	1.07 ± 0.039	1.1 ± 0.096	1 ± 0.08	1.07 ± 0.1	1.06 ± 0.037	1.05 ± 0.088
PRPSAP2 (UniProt O60256)	1.08 ± 0.046	0.982 ± 0.025	1.02 ± 0.059	0.976 ± 0.084	1.04 ± 0.074	1 ± 0.06
UniProt O43324 and related entries	0.969 ± 0.056	0.897 ± 0.052	0.864 ± 0.058	0.879 ± 0.2	0.954 ± 0.13	0.842 ± 0.11
SH3BP5 (UniProt O60239)	0.971 ± 0.025	0.918 ± 0.053	0.954 ± 0.049	0.974 ± 0.02	0.926 ± 0.043	0.885 ± 0.03
UniProt O00422 and related entries	1.21 ± 0.2	1.13 ± 0.26	1.06 ± 0.25	1.07 ± 0.32	0.829 ± 0.22	1.05 ± 0.24
IFIT3 (UniProt O14879)	0.906 ± 0.1	0.885 ± 0.12	0.909 ± 0.11	0.893 ± 0.14	0.862 ± 0.11	0.873 ± 0.12
UniProt O60333-2|O60333-3	0.961 ± 0.022	0.951 ± 0.037	0.91 ± 0.063	0.915 ± 0.052	0.935 ± 0.07	0.91 ± 0.054
PIK3CD (UniProt O00329)	1.04 ± 0.17	1.01 ± 0.11	1.05 ± 0.12	0.982 ± 0.13	1.09 ± 0.067	1.01 ± 0.095
UniProt O43390 and related entries	1.06 ± 0.062	0.969 ± 0.11	1.06 ± 0.035	1.05 ± 0.11	1.12 ± 0.14	1.24 ± 0.15
UniProt O43379 and related entries	1.04 ± 0.039	1.05 ± 0.012	1.03 ± 0.025	1.01 ± 0.029	1.03 ± 0.038	1.01 ± 0.024
M0R0P8 and related entries (UniProt Q13459)	1.06 ± 0.024	1.03 ± 0.034	1.02 ± 0.017	1.01 ± 0.035	1.01 ± 0.032	1.01 ± 0.042
GAK (UniProt O14976)	0.987 ± 0.016	1 ± 0.017	1.05 ± 0.044	1.05 ± 0.013	1.06 ± 0.029	1.05 ± 0.016
UniProt O43598 and related entries	0.895 ± 0.018	0.938 ± 0.022	0.889 ± 0.013	0.918 ± 0.025	0.873 ± 0.017	0.865 ± 0.043
UniProt O43704	0.936 ± 0.014	0.9594 ± 0.0053	0.981 ± 0.017	0.9293 ± 0.0054	0.946 ± 0.06	0.922 ± 0.059
ARPC1B (UniProt O15143)	0.985 ± 0.024	0.984 ± 0.036	0.948 ± 0.038	0.971 ± 0.026	0.953 ± 0.014	0.944 ± 0.034
NDC80 (UniProt O14777)	0.927 ± 0.084	0.919 ± 0.081	0.917 ± 0.081	0.958 ± 0.11	0.908 ± 0.063	0.924 ± 0.037

Target	NP40-soluble protein abundance (concentration: 1mM)	NP40-soluble protein abundance (concentration: 2mM)	NP40-soluble protein abundance (concentration: 4mM)	NP40-soluble protein abundance (concentration: 6mM)	NP40-soluble protein abundance (concentration: 8mM)	NP40-soluble protein abundance (concentration: 10mM)
UniProt O43295 and related entries	0.946 ± 0.045	1.02 ± 0.12	1 ± 0.053	0.959 ± 0.05	0.94 ± 0.051	0.93 ± 0.075
UniProt O60231 and related entries	1.09 ± 0.029	1.09 ± 0.049	1.07 ± 0.043	1.04 ± 0.041	1.09 ± 0.041	1.07 ± 0.046
SLC9A3R1 (UniProt O14745)	0.917 ± 0.033	0.9056 ± 0.0088	0.876 ± 0.012	0.94 ± 0.017	0.884 ± 0.035	0.865 ± 0.035
M0QZR4 (UniProt Q92888)	1.015 ± 0.0021	1.01 ± 0.015	0.995 ± 0.019	1 ± 0.026	0.996 ± 0.035	1 ± 0.034
LANCL1 (UniProt O43813)	0.962 ± 0.13	0.952 ± 0.1	0.921 ± 0.075	0.867 ± 0.16	0.924 ± 0.046	0.933 ± 0.063
UniProt O00154-4|O00154-5	0.981 ± 0.056	1.01 ± 0.035	1.02 ± 0.07	0.989 ± 0.037	0.92 ± 0.031	0.982 ± 0.041
UniProt O00409 and related entries	1.05 ± 0.058	1.01 ± 0.15	0.995 ± 0.087	1.06 ± 0.15	0.949 ± 0.1	1.01 ± 0.18
UniProt O00182 and related entries	1.06 ± 0.071	0.996 ± 0.045	1.05 ± 0.072	0.969 ± 0.053	1.03 ± 0.048	1.02 ± 0.073
UniProt O43251-6|O43251-8	1.08 ± 0.094	1.08 ± 0.046	1.13 ± 0.12	1.06 ± 0.2	0.999 ± 0.11	1.18 ± 0.014
MAST3 (UniProt O60307)	1.3 ± 0.14	1.33 ± 0.15	1.34 ± 0.2	1.33 ± 0.14	1.28 ± 0.14	1.31 ± 0.12
AKAP8 (UniProt O43823)	0.974 ± 0.056	0.975 ± 0.047	0.973 ± 0.038	1.02 ± 0.052	0.996 ± 0.042	0.996 ± 0.035
SART1 (UniProt O43290)	1.2 ± 0.071	1.3 ± 0.076	1.36 ± 0.06	1.56 ± 0.11	1.53 ± 0.026	1.61 ± 0.058
RAD21 (UniProt O60216)	0.966 ± 0.046	0.982 ± 0.049	0.965 ± 0.037	1 ± 0.056	0.953 ± 0.032	0.978 ± 0.021
UniProt O00429 and related entries	0.945 ± 0.038	0.938 ± 0.019	0.9338 ± 0.0041	0.9 ± 0.04	0.934 ± 0.014	0.928 ± 0.019
M0QZ12 and related entries (UniProt Q96CP6)	1.02 ± 0.091	0.99 ± 0.14	1.01 ± 0.072	1.01 ± 0.17	0.966 ± 0.14	1.01 ± 0.06
UniProt O43296	0.928 ± 0.077	0.91 ± 0.015	0.913 ± 0.029	0.882 ± 0.11	0.874 ± 0.056	0.842 ± 0.11
PRPF3 (UniProt O43395)	1.05 ± 0.041	1.05 ± 0.054	1.11 ± 0.032	1.18 ± 0.065	1.22 ± 0.052	1.28 ± 0.04
UniProt O15151 and related entries	1.15 ± 0.29	1.23 ± 0.28	1.06 ± 0.018	1.04 ± 0.035	1.16 ± 0.27	1.25 ± 0.23
UniProt O14924 and related entries	1.11 ± 0.42	1.02 ± 0.047	0.929 ± 0.078	1.16 ± 0.35	1.28 ± 0.44	1.23 ± 0.44
UniProt O14639 and related entries	1.09 ± 0.028	1.12 ± 0.017	1.11 ± 0.02	1.16 ± 0.064	1.15 ± 0.043	1.21 ± 0.043
